These results are taken from paper PMC12670160, “A drug-repurposing screen of FDA- and EMA-approved drugs identifies two NF-κB inhibitors active against eumycetoma” (Journal of Antimicrobial Chemotherapy, 2025).

Where a name gives a salt, the structure may show the parent alone. Screen size: about 5,300 compounds; about 130 (2.5%) showed an effect of 50% or more. Some of the results follow.

For this test, the system named is M. mycetomatis strain mm55. The following applies: primary screen, metabolic activity vs growth control; 96 h, 2 µM; inhibitor.
`CC1CC(OC(=O)C(O)c2ccccc2)CC(C)(C)N1C` (stereo not shown) [ONC0002943, eucatropine]: the “% viability” value stood at 67.69%.
As for `CCCCc1nc(Cl)c(C(=O)O)n1Cc1ccc(-c2ccccc2-c2nn[nH]n2)cc1` [ONC0003844, carboxylosartan], the “% viability” value is 82%.
For `C=C1c2cccc(O)c2C(=O)C2C(=O)[C@]3(O)C(=O)C(C(N)=O)C(=O)[C@@H](N(C)C)[C@@H]3[C@@H](O)[C@H]12` (stereo partly shown) [ONC0000687, methacycline hydrochloride] the value was 124.6%; for `C[C@H]1CN(C[C@H](Cc2ccccc2)C(=O)NCC(=O)O)CC[C@@]1(C)c1cccc(O)c1` [ONC0001300, alvimopan monohydrate], 69.48%.
The result for `COc1ccccc1S(=O)(=O)Nc1ccc2c(c1)CN(C)C(=O)N2` [ONC0004513, pfi1pf6405761] reads 60.81%; that for `c1cc2c(cc1C1CCCCC1)c1c3n2CCNC3CCC1` (stereo not shown) [ONC0002712, tetrindole], 57.5%; that for `CC(C)[C@](O)(c1ccc2cc(OC(F)F)c(OC(F)F)cc2c1)c1c[nH]nn1` [ONC0001797, seviteronel], 82.26%.
As to `COC1CCN(c2cccc(-c3cc(NC(C)=O)nc(-n4nc(C)cc4C)n3)n2)CC1` [ONC0001757, tcg1004], the “% viability” value is given as 57.51%.
The result for `Cc1cc(Nc2ncnc3ccc(-c4ccc(CNCCS(C)(=O)=O)o4)cc23)ccc1Oc1ccn2ncnc2c1` [ONC0004383, her2 inhibitor 1] reads 102.4%; that for `CO[C@@]12[C@H](COC(N)=O)C3=C(C(=O)C(C)=C(N)C3=O)N1C[C@@H]1N[C@@H]12` [ONC0003261, mitomycin], 74.56%; that for `CC(C(=O)O)c1ccc(N2Cc3ccccc3C2=O)cc1` (stereo not shown) [ONC0000383, indoprofen], 86.36%.
For `Cc1nc(C#Cc2ccnc(Cl)c2)c(C)n1-c1ccc(F)cc1` [ONC0002088, basimglurant] the value was 78.59%; for `O=C(c1cn(Cc2cncn2Cc2ccc(Br)cc2)cc1-c1cccc2ccccc12)N1CCOCC1` [ONC0005028, lb42708], 105.6%; for `CCN1CCN(C(=O)N[C@@H](C(=O)N[C@@H]2C(=O)N3C(C(=O)O)=C(CSc4nnnn4C)CS[C@H]23)c2ccc(O)cc2)C(=O)C1=O` [ONC0000570, cefoperazone], 118.8%.
The result for `CC(C)(Cc1ccc2ccccc2c1)NC[C@@H](O)COc1cccc(Cl)c1C#N` [ONC0005073, nps2143 sb262470] reads 64.57%.
For `CN(C)CCOc1ccc(/C(=C(/CCCl)c2ccccc2)c2ccccc2)cc1` [ONC0004127, toremifene citrate], the “% viability” value is 115.5%.
As for `CCCN(CCC)C(=O)C1=Cc2ccc(-c3ccc(C(=O)N4CCCC4)cc3)cc2N=C(N)C1` [ONC0002257, motolimod], the “% viability” value turned out to be 108.9%.
For `Cc1ccc(Cl)c(Nc2ccccc2C(=O)O)c1Cl` [ONC0000446, meclofenamate sodium] the value was 65.97%; for `C=C1/C(=C\C=C2/CCC[C@]3(C)[C@@H]([C@H](C)/C=C/[C@@H](O)C4CC4)CC[C@@H]23)C[C@@H](O)C[C@@H]1O` [ONC0001143, calcipotriol], 97.63%; for `CNC(=O)[C@H](Cc1c[nH]c2ccccc12)NC(=O)[C@@H](CC(=O)NO)CC(C)C` [ONC0005060, ilomastat gm6001 galardin], 74.22%.
As for `N=C1NC(=O)N2CC12` (stereo not shown) [ONC0005293, imexon], the “% viability” value is listed as 80.33%.
With `O=C(NCC(=O)N1CCCCC1)Nc1ccc2nnsc2c1` [ONC0000180, unc2327], the “% viability” value is given as 77.49%.
For the molecule `Oc1ccc(OCc2ccccc2)cc1` [ONC0002824, monobenzone], the “% viability” value was determined as 101.4%.
For `Cc1ccc(N2CCN(CCC3NC(=O)c4ccccc43)CC2)cc1C` (stereo not shown) [ONC0001561, pd168568] the value was 92.99%.
In the case of `Cc1nc(N)sc1CCN` [ONC0002698, amthamine], the “% viability” value is 64.43%.
The result for `CNC(=O)c1cc(COc2nnc(Nc3ccc(Cl)cc3)c3ccoc23)ccn1` [ONC0004937, telatinib bay 579352] reads 72.8%.
The result for `COc1cc2nccc(Oc3ccc(NC(=O)C4(C(=O)Nc5ccc(F)cc5)CC4)cc3)c2cc1OC` [ONC0001709, cabozantinib] reads 86.52%.
Regarding `CCN(CC)Cc1nccn1-c1ccc([N+](=O)[O-])cc1C(=O)c1ccccc1Cl` [ONC0003309, nizofenone fumarate], the “% viability” value was determined as 77.96%.
As for `Cc1cc(O)c2c(=O)c3c(O)cc(O)c4c5c(O)cc(O)c6c(=O)c7c(O)cc(C)c8c1c2c(c34)c(c78)c65` [ONC0003458, hypericin], the “% viability” value stood at 66.52%.
For `O=C(O)/C=C/c1ccc(Cn2ccnc2)cc1` [ONC0000811, ozagrel] the value was 75.33%.
The result for `Fc1cccc(/C=N/N=C/c2cccc(F)c2)c1` [ONC0002586, dfb] reads 79.39%; that for `CC(C)(N)c1nc(-c2ccc(OC(F)(F)F)cc2)c[nH]1` [ONC0000402, pf04885614], 73.02%; that for `Cc1cc([C@@H](C)Nc2ccccc2C(=O)O)c2nc(N3CCOCC3)cc(=O)n2c1` [ONC0001417, azd6482], 66.22%.
The result for `CC(C)(Oc1ccc(C(=O)c2ccc(Cl)cc2)cc1)C(=O)O` [ONC0003911, fenofibric acid] reads 60.7%; that for `O=C1c2ccccc2C(Cc2ccnc(F)c2)(Cc2ccnc(F)c2)c2ccccc21` [ONC0003529, dmp543], 96.39%; that for `COCCOC(=O)C1=C(C)NC(C)=C(C(=O)OC/C=C/c2ccccc2)C1c1cccc([N+](=O)[O-])c1` (stereo not shown) [ONC0003542, cilnidipine], 87.69%.
As for `O=S1(=O)OC(c2ccc(O)cc2)(c2ccc(O)cc2)c2ccccc21` [ONC0003808, phenolsulfonphthalein], the “% viability” value is recorded as 71.08%.
The result for `C=C[C@H]1C[N@]2CC[C@H]1C[C@@H]2[C@H](O)c1ccnc2ccccc12` [ONC0003181, cinchonine] reads 100.9%; that for `CCOc1nc2cccc(C(=O)O)c2n1Cc1ccc(-c2ccccc2-c2noc(=O)[nH]2)cc1` [ONC0004822, azilsartan tak536], 68.56%; that for `Cc1[nH]c(C=C2C(=O)Nc3ccc(F)cc32)c(C)c1C(=O)NC[C@H](O)CN1CCOCC1` [ONC0005595, su14813], 85.67%.
For `O=c1c(-c2ccc(O)cc2)coc2c([C@@H]3O[C@H](CO)[C@@H](O)[C@H](O)[C@H]3O)c(O)ccc12` [ONC0004968, puerarin kakonein] the value was 66.02%.
The result for `CCCCN1CCC(CCC(=O)c2cc(Cl)c(N)cc2OC)CC1` [ONC0002606, rs67333] reads 88.79%; that for `CCn1nc(C(=O)O)c(=O)c2cc3c(cc21)OCO3` [ONC0000281, cinoxacin], 70.93%; that for `Cc1cc(C)cc(C(=O)NOCCCCCC(=O)NO)c1` [ONC0000176, lmk235], 112.8%.
Take `CN/C(=C\[N+](=O)[O-])NCCSCc1csc(CN(C)C)n1` [ONC0005362, nizatidine]: the “% viability” value worked out at 92.97%.
For `Cc1cc(C)c(/C=C2\C(=O)Nc3ccccc32)[nH]1` [ONC0001545, semaxanib], the “% viability” value was found to be 78.09%.
For `CC(C)c1cc(-c2ccc(F)c3ccccc23)nc(N)n1` [ONC0005086, rs127445] the value was 107.2%.
For `O=C1CC2(CCCC2)CC(=O)N1CCCCN1CCN(c2ncccn2)CC1` [ONC0005350, buspirone hydrochloride], the “% viability” value turned out to be 64.44%.
For `OC[C@H]1OC(O)C[C@@H](O)[C@@H]1O` (mixture of isomers) [ONC0003476, 2deoxyglucose] the value was 78.39%; for `c1ccc(OCc2ccc(CCCN3CCOCC3)cc2)cc1` [ONC0002891, fomocain], 115.8%.
The result for `CCCCN(CCCC)C(=O)CN1C[C@H](c2ccc3c(c2)OCO3)[C@@H](C(=O)O)[C@@H]1c1ccc(OC)cc1` [ONC0002102, atrasentan hydrochloride] reads 66.48%; that for `CC1(C)C(/C=C/C=C/C=C/C=C2\N(CCCCS(=O)(=O)O)c3ccc4ccccc4c3C2(C)C)=[N+](CCCCS(=O)(=O)[O-])c2ccc3ccccc3c21` [ONC0002025, cardiogreen], 67.83%; that for `C[C@H](C(=O)O)c1ccc(-c2ccccc2)c(F)c1` [ONC0004598, flurbiprofen], 66.5%.
For `Cc1c(F)cc(C(=O)NC2CC2)cc1-c1ccc(C(=O)NCC(C)(C)C)cn1` [ONC0001861, losmapimod] the value was 107.7%; for `COc1ccc(S(=O)(=O)N(C(C)=O)c2ccccc2/C=C/c2cc[n+]([O-])cc2)cc1` [ONC0004882, hmn214], 106.8%.
Consider `O=C(O)[C@@H](c1ccc(OCc2ccc3ccccc3n2)cc1)C1CCCC1` [ONC0005557, veliflapon], for which the “% viability” value was determined as 76.74%.
For `CCn1ccnc1CC1COc2ccccc2O1` (stereo not shown) [ONC0001419, imiloxan] the value was 88.86%; for `CC(=O)N(OCc1ccccc1)[C@@H]1c2cc(C#N)ccc2OC(C)(C)[C@H]1O` [ONC0004462, y27152], 125.5%.
For `N#Cc1cc(-c2n[nH]c(-c3ccncc3)n2)ccn1` [ONC0001182, topiroxostat] the value was 99.34%; for `C[N+]1(C)[C@@H]2C[C@@H](OC(=O)[C@H](CO)c3ccccc3)C[C@H]1[C@@H]1O[C@@H]12` [ONC0000425, methscopolamine bromide], 63.9%.
The result for `Cc1sc(C)c2c1CCC=C2c1cnc[nH]1` [ONC0000248, tcg1000] reads 71.17%.
